Assay results: patent US11304927B2, “Bioactive extract, fraction of Cassia occidentalis and formulation thereof for bone regeneration” (COUNCIL OF SCIENTIFIC AND INDUSTRIAL RESEARCH, priority 2018, dated 2022)
For at least one compound, name, drawing or mass did not settle the structure.

Tests used:
[1] = tested on: Rat calvarial osteoblasts (RCO); experiment: Alkaline phosphatase (ALP) assay, osteoblast differentiation; assay type: cell-based; conditions: 48 h in differentiation medium, symbols + / − not defined
Procedure: Calvaria from ten to twelve 1-2 day old rat pups were harvested, cleaned, and subjected to five sequential enzymatic digestions (0.1% diaspase and 0.1% collagenase I) of 10-15 min each. Cells from second to fifth digestion were collected, centrifuged, re-suspended and cultured in α-MEM containing 10% fetal bovine serum (FBS) and 1% penicillin/streptomycin (complete growth medium).
For ALP assay, RCO were trypsinized at 80% confluence and 2×10^3 cells/well were seeded onto 24-well plates. Cells were treated with different compounds isolated from extract & vehicle for 48 h in α-MEM supplemented with 10 mM β-glycerophosphate, […] and 1% penicillin/streptomycin (osteoblast differentiation medium).
At the end of the experiment, cells were washed with PBS, freeze fractured by placing the plates at −70° C. for 15 minutes followed by bringing to room temperature. ALP activity was measured by adding 100 µl p-nitrophenylphosphate buffer (2 mg/ml pNPP and 0.25 mM MgCl2 in 1 M diethanolamine). The absorption was measured at 405 nm with a microplate reader.

[2] = tested on: MP treated animals (adult male SD rats); experiment: Measurement of serum cations in MP treated animals; assay type: in vivo, rat; conditions: 1 month
[3] = tested on: muscle ring finger protein (MuRF1); experiment: Measurement of muscle atrophy (immunoblot, gastrocnemius muscle); assay type: in vivo, rat; conditions: MP treated rats, 1 month
atrogin 1 = experiment: as above; assay type: in vivo, rat; conditions: MP treated rats, 1 month

Row | Structure (SMILES) | Activity (osteogenic) [1] | serum potassium level [2] | serum sodium level [2] | muscle murf-1 level [3] | muscle atrogin level (atrogin 1)
1 | Cc1cc(O)c2c(c1)C(=O)c1cc(O)cc(O)c1C2=O [219/K012, Emodin] | + |  |  |  | 
2 | Cc1cc(O[C@@H]2O[C@H](CO[C@@H]3O[C@H](CO)[C@@H](O)[C@H](O)[C@H]3O)[C@@H](O)[C@H](O)[C@H]2O)c2c(c1)C(=O)c1cccc(O)c1C2=O [219/K014, Chrysophanol 1-O-β-Gentiobioside] | − |  |  |  | 
3 | Cc1cc(O)c2c(c1)C(=O)c1cc(O[C@@H]3O[C@@H](C)[C@H](O[C@@H]4O[C@H](CO)[C@@H](O)[C@H](O)[C@H]4O)[C@@H](O)[C@H]3O)cc(O)c1C2=O [219/K015, Rhamnocathartin] | − |  |  |  | 
4 | C[C@H]1C[C@@H]2[C@H]([C@@H](O)C[C@@]3(C)[C@H]2CC[C@]3(O)C(=O)CO)[C@@]2(C)C=CC(=O)C=C12 [MP, Methylprednisolone] |  | decreased | increased | significantly enhanced | significantly enhanced
